PubChem BioAssay AID1224830, NIAID – 2016
The deposit covers about 18,000 reagents; this is a random part of them. In the full data, about 2,900 (16%) are marked active. 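Calls are made per well; low scores hint the gene aids the LPS response, high scores that it dampens it.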 Repeated entries: four replicate wells of each siRNA pool.

Purpose: 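Host factors that control LPS-induced TNF expression in human macrophages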 (primary screen)
System: human THP-1 monocytic leukaemia cells, TNF dual-luciferase reporter clone, PMA-differentiated to macrophage-like cells
Reagents: siRNA pool against human genes, 50 nM
Time to read-out: LPS for 4 h, given about 3 days after siRNA transfection
Challenge: bacterial LPS (TLR4 ligand), 10 ng/ml
Measurement: 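TNF firefly reporter luminescence divided by renilla, normalised to the plate median, then turned into a robust z-score for each replicate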
Direction: TNF reporter robust z-score: higher = stronger TNF reporter response to LPS
Call rule: 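a well is active when its z-score exceeds 2.8 or falls below -1.5; control wells carry no call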

Gene,TNF reporter robust z-score,Call
ETNPPL (ethanolamine-phosphate phospho-lyase),-0.18,inactive
ETNPPL (ethanolamine-phosphate phospho-lyase),1.63,inactive
ETNPPL (ethanolamine-phosphate phospho-lyase),-0.13,inactive
ETNPPL (ethanolamine-phosphate phospho-lyase),1.49,inactive
TPRKB (TP53RK binding protein),-2.15,active
TPRKB (TP53RK binding protein),-0.93,inactive
TPRKB (TP53RK binding protein),-0.76,inactive
TPRKB (TP53RK binding protein),-0.82,inactive
CDH8 (cadherin 8),0.28,inactive
CDH8 (cadherin 8),0.31,inactive
CDH8 (cadherin 8),-0.09,inactive
CDH8 (cadherin 8),0.18,inactive
MMP9 (matrix metallopeptidase 9),-0.68,inactive
MMP9 (matrix metallopeptidase 9),-0.11,inactive
MMP9 (matrix metallopeptidase 9),0.84,inactive
MMP9 (matrix metallopeptidase 9),0.54,inactive
SMAD6 (SMAD family member 6),-0.9,inactive
SMAD6 (SMAD family member 6),-0.74,inactive
SMAD6 (SMAD family member 6),-0.75,inactive
SMAD6 (SMAD family member 6),-1.04,inactive
SLC38A12,0.84,inactive
SLC38A12,-0.23,inactive
SLC38A12,-0.18,inactive
SLC38A12,-0.09,inactive
LSS (lanosterol synthase),-0.02,inactive
LSS (lanosterol synthase),-0.24,inactive
LSS (lanosterol synthase),-0.56,inactive
LSS (lanosterol synthase),0.18,inactive
PLAGL1 (PLAG1 like zinc finger 1),-0.57,inactive
PLAGL1 (PLAG1 like zinc finger 1),-0.18,inactive
PLAGL1 (PLAG1 like zinc finger 1),-0.05,inactive
PLAGL1 (PLAG1 like zinc finger 1),1.88,inactive
MEGF8 (multiple EGF like domains 8),0.65,inactive
MEGF8 (multiple EGF like domains 8),0.35,inactive
MEGF8 (multiple EGF like domains 8),0.34,inactive
MEGF8 (multiple EGF like domains 8),-0.23,inactive
TRAPPC6A (trafficking protein particle complex subunit 6A),0.1,inactive
TRAPPC6A (trafficking protein particle complex subunit 6A),-0.15,inactive
TRAPPC6A (trafficking protein particle complex subunit 6A),-0.55,inactive
TRAPPC6A (trafficking protein particle complex subunit 6A),0.31,inactive
SRARP (steroid receptor associated and regulated protein),-0.47,inactive
SRARP (steroid receptor associated and regulated protein),-0.4,inactive
SRARP (steroid receptor associated and regulated protein),0.01,inactive
SRARP (steroid receptor associated and regulated protein),-0.01,inactive
EIF2B2 (eukaryotic translation initiation factor 2B subunit beta),-0.79,inactive
EIF2B2 (eukaryotic translation initiation factor 2B subunit beta),-1.4,inactive
EIF2B2 (eukaryotic translation initiation factor 2B subunit beta),-0.81,inactive
EIF2B2 (eukaryotic translation initiation factor 2B subunit beta),-0.77,inactive

Ordered by “TNF reporter robust z-score” (descending): some entries from above
Gene,TNF reporter robust z-score,Call
TRAPPC6A (trafficking protein particle complex subunit 6A),0.31,inactive
TRAPPC6A (trafficking protein particle complex subunit 6A),-0.15,inactive
SRARP (steroid receptor associated and regulated protein),-0.47,inactive
TRAPPC6A (trafficking protein particle complex subunit 6A),-0.55,inactive
